Reference: patent US20170100454A1 (VANDERBILT UNIVERSITY, published 2017)
No constants are given. Whether binding was seen depends on the method and setting. In cells and extracts the contact can be indirect. Some binding calls cover weakened binding; strength is not graded here.

Amino acid sequences for entries named in this document (tags omitted). A change or cut given only in a name is not applied to a line headed by its entry.
UniProt P52294: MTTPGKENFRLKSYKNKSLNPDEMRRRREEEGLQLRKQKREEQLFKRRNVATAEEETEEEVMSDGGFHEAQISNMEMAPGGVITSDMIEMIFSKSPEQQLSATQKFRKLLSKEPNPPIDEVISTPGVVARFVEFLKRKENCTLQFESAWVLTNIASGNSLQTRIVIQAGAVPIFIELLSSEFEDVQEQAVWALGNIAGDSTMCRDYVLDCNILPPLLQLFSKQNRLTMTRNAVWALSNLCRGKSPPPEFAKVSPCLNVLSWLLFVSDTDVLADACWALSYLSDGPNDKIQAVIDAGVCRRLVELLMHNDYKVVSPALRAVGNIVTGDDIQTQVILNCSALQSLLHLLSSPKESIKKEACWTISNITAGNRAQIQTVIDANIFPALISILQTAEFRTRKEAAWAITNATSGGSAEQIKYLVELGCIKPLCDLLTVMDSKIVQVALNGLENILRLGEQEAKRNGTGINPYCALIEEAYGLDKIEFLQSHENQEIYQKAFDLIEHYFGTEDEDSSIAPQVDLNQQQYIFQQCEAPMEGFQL

Columns and labels:
[1] = target: T1, Endogenous human importin alpha 5 (human, UniProt P52294 1-529 at identity 1.00)); experiment: pull-down: biotinylated peptide in Jurkat T whole cell lysate, streptavidin-coated beads, immunoblot
T1 construct: Endogenous protein in whole cell lysates, and in Hep-G2 cells for the functional rows; also called Imp α5; KPNA1

[2] = target: T2, Endogenous human importin alpha 4 (human, UniProt O00505 2-521); experiment: as above
T2 construct: mature; also called Imp α4
T2 sequence (looked up): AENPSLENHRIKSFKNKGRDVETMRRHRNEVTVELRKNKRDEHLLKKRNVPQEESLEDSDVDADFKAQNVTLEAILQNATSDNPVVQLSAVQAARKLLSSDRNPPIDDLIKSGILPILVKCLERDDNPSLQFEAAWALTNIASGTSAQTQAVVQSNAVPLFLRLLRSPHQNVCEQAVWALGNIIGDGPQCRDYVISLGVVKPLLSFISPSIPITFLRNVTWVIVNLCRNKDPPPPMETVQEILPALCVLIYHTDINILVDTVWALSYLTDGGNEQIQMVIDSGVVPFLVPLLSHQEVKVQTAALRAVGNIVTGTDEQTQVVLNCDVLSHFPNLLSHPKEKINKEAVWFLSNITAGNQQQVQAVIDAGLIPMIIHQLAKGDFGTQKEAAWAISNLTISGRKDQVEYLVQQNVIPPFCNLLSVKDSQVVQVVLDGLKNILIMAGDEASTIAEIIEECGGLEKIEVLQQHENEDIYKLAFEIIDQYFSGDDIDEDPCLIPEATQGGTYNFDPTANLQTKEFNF

[3] = target: T3, Endogenous human importin alpha 3 (human, UniProt O00629 2-521); experiment: as above
T3 construct: mature; also called Imp α3
T3 sequence (looked up): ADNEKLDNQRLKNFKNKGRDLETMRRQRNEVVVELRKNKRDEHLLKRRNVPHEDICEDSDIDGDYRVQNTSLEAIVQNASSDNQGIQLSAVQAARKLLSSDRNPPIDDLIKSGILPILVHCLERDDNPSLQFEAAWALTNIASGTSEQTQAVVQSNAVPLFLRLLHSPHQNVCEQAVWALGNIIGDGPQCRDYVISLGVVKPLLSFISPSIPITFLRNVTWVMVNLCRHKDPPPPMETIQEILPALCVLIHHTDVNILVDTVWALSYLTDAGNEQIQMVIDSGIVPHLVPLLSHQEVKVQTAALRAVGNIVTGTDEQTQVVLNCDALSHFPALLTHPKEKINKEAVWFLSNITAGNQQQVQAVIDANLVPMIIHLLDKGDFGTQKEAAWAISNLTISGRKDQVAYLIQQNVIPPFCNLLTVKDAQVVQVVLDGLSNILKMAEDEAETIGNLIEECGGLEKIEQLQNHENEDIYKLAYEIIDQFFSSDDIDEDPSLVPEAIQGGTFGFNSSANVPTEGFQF

[4] = target: T1, Endogenous human importin alpha 5; experiment: pull-down with biotinylated peptide and SA beads from whole cell lysates (Jurkat T, HeLa S3, EA.hy926), immunoblot
[5] = target: T3, Endogenous human importin alpha 3; experiment: as above
[6] = target: T1, Endogenous human importin alpha 5; experiment: pull-down from whole cell lysates of three cell types, immunoblot
[7] = target: T3, Endogenous human importin alpha 3; experiment: as above
[8] = target: T1, Endogenous human importin alpha 5; experiment: pull-down with biotinylated peptide and SA beads from Jurkat T cell lysate, immunoblot (FIG. 7)
[9] = target: T3, Endogenous human importin alpha 3; experiment: as above
[10] = target: T4, Endogenous human importin alpha 7 (human, UniProt O60684 1-536); experiment: as above
T4 construct: mature; also called Imp α7

[11] = target: T2, Endogenous human importin alpha 4; experiment: as above

Measured: binding

VELRKNKRDEHLLKRRNVPHE (biotinylated (position and linker not stated)) [Biotinylated AR3 peptide (auto-inhibitory region of Imp α3)]
binds: [1] | [2] | [3]

VELRKNKRDEHLLKKRNVPQE (biotinylated (position and linker not stated)) [Biotinylated AR4 peptide (auto-inhibitory region of Imp α4)]
binds: [1] | [2] | [3]

LQLRKQKREEQLFKRRNVATA (biotinylated (position and linker not stated)) [Biotinylated AR5 peptide (auto-inhibitory region of Imp α5)]
binds: [2]

GGGGGVQRKRQKLMP (biotin at the NH2 terminus) [Biotinylated N50 peptide]
binds: [4] | [5] | [6] | [7]

IQLRKQKREQQLFKRRNVELI (biotinylated (position and linker not stated)) [Biotinylated AR7 peptide (auto-inhibitory region of Imp α7)]
binds: [8] | [9] | [10] | [11]
